14 substances from publication PMC6476978 can be followed below.

Results are given in words; binding and its absence hold for the method and conditions named. Binding seen in cells or lysates may run through a third protein. Here binding means that the protein was enriched with, or labelled near, the bait; the list need not be complete.

The assay addresses T1, N protein of VHSV (viral hemorrhagic septicemia virus (VHSV) strain 07.71) (UniProt P24378).
T1 sequence: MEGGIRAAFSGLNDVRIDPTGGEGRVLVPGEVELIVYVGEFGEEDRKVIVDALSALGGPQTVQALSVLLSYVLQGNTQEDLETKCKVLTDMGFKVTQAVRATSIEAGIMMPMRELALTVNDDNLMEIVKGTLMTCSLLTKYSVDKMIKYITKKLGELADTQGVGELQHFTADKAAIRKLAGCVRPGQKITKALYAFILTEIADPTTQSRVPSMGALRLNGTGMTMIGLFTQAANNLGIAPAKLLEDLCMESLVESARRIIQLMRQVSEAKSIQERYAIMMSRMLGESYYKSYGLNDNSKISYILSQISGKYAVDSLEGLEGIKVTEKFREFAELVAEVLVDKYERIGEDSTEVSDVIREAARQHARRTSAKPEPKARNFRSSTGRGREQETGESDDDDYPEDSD
The assay is described as follows: affinity purification with mass spectrometry; lysate (RIPA buffer) of rainbow trout RBCs exposed to VHSV at MOI 1 for 3 h; immunoprecipitated with monoclonal antibody 2C9 against N protein of VHSV overnight at 4°C, protein A Sepharose; LC ESI-MSMS.

On to “Actin beta (rainbow trout (endogenous in RBCs))”, for which the binding result is listed as “binds”.

On to “Actin gamma 1 (rainbow trout (endogenous in RBCs))”, for which the binding result is given as “binds”.

Regarding “Enolase 1 (rainbow trout (endogenous in RBCs))”, the binding result is “binds”.

Consider “Histone cluster 2, H2be (rainbow trout (endogenous in RBCs))”, for which the binding entry is listed as “binds”.

On to “Histone cluster 2, H3d (rainbow trout (endogenous in RBCs))”, for which the binding result was “binds”.

Turning to “Myosin, heavy chain 6 (rainbow trout (endogenous in RBCs))”, the binding entry is reported as “binds”.

For the substance “Peroxiredoxin 1 (rainbow trout (endogenous in RBCs))”, the binding entry is recorded as “binds”.

Turning to “Progesterone immunomodulatory binding factor 1 (rainbow trout (endogenous in RBCs))”, the binding result is reported as “binds”.

For “Resistance to inhibitors of cholinesterase 8 homolog B (rainbow trout (endogenous in RBCs))”, the binding result is on record as “binds”.

On to “Ribosomal protein L5 (rainbow trout (endogenous in RBCs))”, for which the binding result is “binds”.

On to “Ribosomal protein L15 (rainbow trout (endogenous in RBCs))”, for which the binding result was “binds”.

In the case of “Ribosomal protein S4, X-linked (rainbow trout (endogenous in RBCs))”, the binding result was “binds”.

On to “STE20-like kinase (rainbow trout (endogenous in RBCs))”, for which the binding result is reported as “binds”.

On to “Tubulin, alpha 1b (rainbow trout (endogenous in RBCs))”, for which the binding result is on record as “binds”.
